Data reported in publication PMC4429810, “Heat shock protein 90 inhibitors repurposed against Entamoeba histolytica” (Frontiers in Microbiology, 2015).

The chains behind the UniProt entries cited, without tags or fusion partners. Residues count along the entry.
UniProt C4MBP1, 1-215: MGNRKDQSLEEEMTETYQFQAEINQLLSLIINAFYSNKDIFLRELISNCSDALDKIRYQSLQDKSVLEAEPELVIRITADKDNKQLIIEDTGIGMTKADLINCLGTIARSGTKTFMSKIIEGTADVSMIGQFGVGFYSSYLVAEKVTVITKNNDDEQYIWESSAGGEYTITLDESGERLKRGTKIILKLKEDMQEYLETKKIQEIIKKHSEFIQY

Target: T1, EhHsp90 ATP-binding domain (Entamoeba histolytica, UniProt C4MBP1)
T1 construct: gene EHI_102270; cloned from genomic DNA in pET28a, E. coli BL21(DE3); His tag said to be cut by TEV; pocket residues C49, C103, R109
Assay: bis-ANS fluorescence displacement screen
Conditions: read-out: Percent inhibition of fluorescence in protein screen at 2.5 μM (%)
Text: bis-ANS fluorescence displacement screen on EhHsp90 ATP-binding domain

`CCCCCCCCCCCCCCCC[n+]1ccccc1` [Cetylpyridinium chloride] was tested, and the inhibition at 2.5 µM was 95.9%.
